Measurements: patent US20230382910A1, “HETEROARYL COMPOUNDS FOR THE TREATMENT OF PAIN” (VERTEX PHARMACEUTICALS INCORPORATED, priority 2022, published 2023)
Some entries share one result that the patent states for a list of compounds.

Protein sequences, listed by entry. Tags and fused reporters are not part of them. Residues count along the entry.
UniProt Q9Y5Y9, 660-890 limits assumed: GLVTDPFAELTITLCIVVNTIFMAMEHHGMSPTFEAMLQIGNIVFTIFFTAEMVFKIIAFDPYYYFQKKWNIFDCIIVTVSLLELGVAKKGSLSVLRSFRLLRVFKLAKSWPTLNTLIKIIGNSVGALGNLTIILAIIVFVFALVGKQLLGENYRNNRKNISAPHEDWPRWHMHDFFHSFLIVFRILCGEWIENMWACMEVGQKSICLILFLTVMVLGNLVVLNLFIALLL
UniProt Q9Y5Y9, 1148-1722 limits assumed: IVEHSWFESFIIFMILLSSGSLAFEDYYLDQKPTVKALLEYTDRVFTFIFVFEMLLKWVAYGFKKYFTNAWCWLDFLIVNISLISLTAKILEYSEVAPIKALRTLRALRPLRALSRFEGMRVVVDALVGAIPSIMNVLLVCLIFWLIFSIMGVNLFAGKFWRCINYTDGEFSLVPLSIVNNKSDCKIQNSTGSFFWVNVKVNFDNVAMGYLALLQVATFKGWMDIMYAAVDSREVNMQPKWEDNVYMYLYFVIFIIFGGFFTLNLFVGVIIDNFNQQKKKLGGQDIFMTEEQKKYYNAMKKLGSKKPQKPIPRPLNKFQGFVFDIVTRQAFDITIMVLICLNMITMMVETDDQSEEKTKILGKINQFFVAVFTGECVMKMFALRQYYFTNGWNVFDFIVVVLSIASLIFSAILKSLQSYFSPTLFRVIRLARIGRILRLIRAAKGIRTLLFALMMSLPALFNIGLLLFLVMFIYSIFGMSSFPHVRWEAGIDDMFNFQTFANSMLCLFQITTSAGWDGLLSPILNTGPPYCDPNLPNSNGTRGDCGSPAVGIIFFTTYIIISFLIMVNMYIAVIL
UniProt Q9Y5Y9, 126-399 limits assumed: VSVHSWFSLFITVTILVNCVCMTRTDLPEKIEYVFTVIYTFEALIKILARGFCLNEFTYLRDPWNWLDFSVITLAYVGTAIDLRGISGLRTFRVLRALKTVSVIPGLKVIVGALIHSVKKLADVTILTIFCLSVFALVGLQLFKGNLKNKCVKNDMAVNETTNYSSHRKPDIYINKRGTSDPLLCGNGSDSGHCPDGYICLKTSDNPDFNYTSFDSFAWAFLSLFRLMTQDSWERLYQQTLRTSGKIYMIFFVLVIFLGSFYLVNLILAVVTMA

Molecular target: human NaV 1.8 (Homo sapiens, UniProt Q9Y5Y9)
Experiment: E-VIPR Assay Detecting and Measuring NaV Inhibition Properties
Assay type: cell-based
Details: HEK cells expressing a truncated form of human NaV 1.8; electrical stimulation, membrane potential FRET dyes; read-out: measured IC50 value in the E-VIPR Assay

| IC50 | SMILES |
| --- | --- |
| < 500 nM | Cc1cc(C(C)(C)C)c(Cl)cc1-c1cc(=O)c2cnccc2[nH]1 [Compound 202, 2-(4-tert-butyl-5-chloro-2-methyl-phenyl)-1H-1,6-naphthyridin-4-one] |
| < 500 nM | COc1cncc2[nH]c(-c3cc(Cl)c(C(C)(C)C)cc3C)cc(=O)c12 [Compound 203, 2-(4-tert-butyl-5-chloro-2-methyl-phenyl)-5-methoxy-1H-1,7-naphthyridin-4-one] |
| < 500 nM | Cc1cc(C(C)(C)C)c(Cl)cc1-c1[nH]c2ccnc(C(N)=O)c2c(=O)c1C [Compound 204, 2-(4-tert-butyl-5-chloro-2-methyl-phenyl)-3-methyl-4-oxo-1H-1,6-naphthyridine-5-carboxamide] |
| < 500 nM | Cc1cc(C(C)(C)C)c(Cl)cc1-c1cc(=O)c2c(=O)[nH]ncc2[nH]1 [Compound 205, 2-(4-tert-butyl-5-chloro-2-methyl-phenyl)-1,6-dihydropyrido[2,3-d]pyridazine-4,5-dione] |
| < 500 nM | Cc1cc(C(C)(C)C)c(Cl)cc1-c1[nH]c2ccncc2c(=O)c1C [Compound 206, 2-(4-tert-butyl-5-chloro-2-methyl-phenyl)-3-methyl-1H-1,6-naphthyridin-4-one] |
| < 500 nM | Cc1cc(C(C)(C)C)c(C)cc1-c1cc(=O)c2cc(F)ccc2[nH]1 [Compound 207, 2-(4-tert-butyl-2,5-dimethyl-phenyl)-6-fluoro-1H-quinolin-4-one] |
| < 500 nM | Cc1cc(C(C)(C)C)c(C)cc1-c1cc(=O)c2c(C(N)=O)nccc2[nH]1 [Compound 210, 2-(4-tert-butyl-2,5-dimethyl-phenyl)-4-oxo-1H-1,6-naphthyridine-5-carboxamide] |
| < 500 nM | Cc1cc(C(C)(C)C)ccc1-c1cc(=O)c2c(C(N)=O)nccc2[nH]1 [Compound 211, 2-(4-tert-butyl-2-methyl-phenyl)-4-oxo-1H-1,6-naphthyridine-5-carboxamide] |
| < 500 nM | Cc1cc(C(C)(C)C(F)(F)F)c(F)cc1-c1cc(=O)c2c(C(N)=O)nccc2[nH]1 [Compound 214, 2-[5-fluoro-2-methyl-4-(2,2,2-trifluoro-1,1-dimethyl-ethyl)phenyl]-4-oxo-1H-1,6-naphthyridine-5-carboxamide] |
| < 500 nM | Cc1cc(C(C)(C)C(F)(F)F)ccc1-c1cc(=O)c2c(C(N)=O)nccc2[nH]1 [Compound 215, 2-[2-methyl-4-(2,2,2-trifluoro-1,1-dimethyl-ethyl)phenyl]-4-oxo-1H-1,6-naphthyridine-5-carboxamide] |
| < 500 nM | COc1cc(C(C)(C)C)ccc1-c1cc(=O)c2c(C(N)=O)nccc2[nH]1 [Compound 216, 2-(4-tert-butyl-2-methoxy-phenyl)-4-oxo-1H-1,6-naphthyridine-5-carboxamide] |
| < 500 nM | C=C(c1cc(C)c(-c2cc(=O)c3c(C(N)=O)nccc3[nH]2)cc1C)C(F)(F)F [Compound 217, 2-[2,5-dimethyl-4-[1-(trifluoromethyl)vinyl]phenyl]-4-oxo-1H-1,6-naphthyridine-5-carboxamide] |
| < 500 nM | CC(C)(C)c1ccc(-c2cc(=O)c3c(C(N)=O)nccc3[nH]2)c(Cl)c1 [Compound 218, 2-(4-tert-butyl-2-chloro-phenyl)-4-oxo-1H-1,6-naphthyridine-5-carboxamide] |
| < 500 nM | Cc1cc(C(C)C)c(C)cc1-c1cc(=O)c2c(C(N)=O)nccc2[nH]1 [Compound 219, 2-(4-isopropyl-2,5-dimethyl-phenyl)-4-oxo-1H-1,6-naphthyridine-5-carboxamide] |
| < 500 nM | COc1cc(-c2cc(=O)c3c(C(N)=O)nccc3[nH]2)c(C)cc1C(C)(C)C(F)(F)F [Compound 220, 2-[5-methoxy-2-methyl-4-(2,2,2-trifluoro-1,1-dimethyl-ethyl)phenyl]-4-oxo-1H-1,6-naphthyridine-5-carboxamide] |
| < 500 nM | Cc1cc2c(cc1-c1cc(=O)c3c(C(N)=O)nccc3[nH]1)C(C)(C)CC2 [Compound 222, 4-oxo-2-(3,3,6-trimethylindan-5-yl)-1H-1,6-naphthyridine-5-carboxamide] |
| < 500 nM | Cc1cc(-c2cc(=O)c3c(C(N)=O)nccc3[nH]2)c(C)nc1C(C)(C)C [Compound 225, 2-(6-tert-butyl-2,5-dimethyl-3-pyridyl)-4-oxo-1H-1,6-naphthyridine-5-carboxamide] |
| < 500 nM | Cc1cc2c(cc1-c1cc(=O)c3c(C(N)=O)nccc3[nH]1)CC(C)(C)C2 [Compound 226, 4-oxo-2-(2,2,6-trimethylindan-5-yl)-1H-1,6-naphthyridine-5-carboxamide] |
| < 500 nM | Cc1cc2c(cc1-c1cc(=O)c3c(C(N)=O)nccc3[nH]1)CCC(C)(C)C2 [Compound 227, 4-oxo-2-(2,2,7-trimethyltetralin-6-yl)-1H-1,6-naphthyridine-5-carboxamide] |
| ≥ 5000 nM | NC(=O)c1nccc2[nH]c(-c3cc4ccccc4nc3O)cc(=O)c12 [Compound 229, 2-(2-hydroxy-3-quinolyl)-4-oxo-1H-1,6-naphthyridine-5-carboxamide] |
| < 500 nM | Cc1cc(C(C)C)c(C(F)(F)F)cc1-c1cc(=O)c2c(C(N)=O)nccc2[nH]1 [Compound 232, 2-[4-isopropyl-2-methyl-5-(trifluoromethyl)phenyl]-4-oxo-1H-1,6-naphthyridine-5-carboxamide] |
| < 500 nM | Cc1cc2c(cc1-c1cc(=O)c3c(C(N)=O)nccc3[nH]1)CC(C)(C)CC2 [Compound 233, 4-oxo-2-(3,3,7-trimethyltetralin-6-yl)-1H-1,6-naphthyridine-5-carboxamide] |

Continued, compound first:

| SMILES | IC50 |
| --- | --- |
| Cc1cc(C(C)(C)C)ccc1-c1cc(=O)c2c(C(=O)O)nccc2[nH]1 [Compound 184, 2-(4-tert-butyl-2-methyl-phenyl)-4-oxo-1H-1,6-naphthyridine-5-carboxylic acid] | < 500 nM |
| Cc1cc(C(C)(C)C(F)(F)F)c(F)cc1-c1cc(=O)c2c(C#N)nccc2[nH]1 [Compound 185, 2-[5-fluoro-2-methyl-4-(2,2,2-trifluoro-1,1-dimethyl-ethyl)phenyl]-4-oxo-1H-1,6-naphthyridine-5-carbonitrile] | < 500 nM |
| CC(C)(C)c1ccc(-c2cc(=O)c3cc(F)ccc3[nH]2)c(F)n1 [Compound 186, 2-(6-tert-butyl-2-fluoro-3-pyridyl)-6-fluoro-1H-quinolin-4-one] | ≥ 5000 nM |
| Cc1cc(C(C)(C)C(F)(F)F)c(C)cc1-c1cc(=O)c2c(C#N)nccc2[nH]1 [Compound 187, 2-[2,5-dimethyl-4-(2,2,2-trifluoro-1,1-dimethyl-ethyl)phenyl]-4-oxo-1H-1,6-naphthyridine-5-carbonitrile] | < 500 nM |
| Cc1cc(C(C)(C)C(F)(F)F)c(Cl)cc1-c1cc(=O)c2c(C#N)nccc2[nH]1 [Compound 188, 2-[5-chloro-2-methyl-4-(2,2,2-trifluoro-1,1-dimethyl-ethyl)phenyl]-4-oxo-1H-1,6-naphthyridine-5-carbonitrile] | < 500 nM |
| Cc1cc(C(C)(C)C)ccc1-c1[nH]c2ccnc(C(N)=O)c2c(=O)c1Br [Compound 189, 3-bromo-2-(4-tert-butyl-2-methyl-phenyl)-4-oxo-1H-1,6-naphthyridine-5-carboxamide] | < 500 nM |
| Cc1cc(C(F)(F)F)c(Cl)cc1-c1cc(=O)c2cc(F)ccc2[nH]1 [Compound 190, 2-[5-chloro-2-methyl-4-(trifluoromethyl)phenyl]-6-fluoro-1H-quinolin-4-one] | < 500 nM |
| COc1c(F)ccc2[nH]c(-c3cc4c(cc3C)C(C)(C)CC4)cc(=O)c12 [Compound 191, 6-fluoro-5-methoxy-2-(1,1,6-trimethylindan-5-yl)-1H-quinolin-4-one] | < 500 nM |
| Cc1cc(C(C)(C)C)ncc1-c1cc(=O)c2cc(F)ccc2[nH]1 [Compound 192, 2-(6-tert-butyl-4-methyl-3-pyridyl)-6-fluoro-1H-quinolin-4-one] | < 500 nM |
| COc1c(F)ccc2[nH]c(-c3cc(C)c(C(C)(C)C)nc3C)cc(=O)c12 [Compound 193, 2-(6-tert-butyl-2,5-dimethyl-3-pyridyl)-6-fluoro-5-methoxy-1H-quinolin-4-one] | < 500 nM |
| Cc1cc2c(cnn2C)cc1-c1cc(=O)c2ccccc2[nH]1 [Compound 194, 2-(1,6-dimethylindazol-5-yl)-1H-quinolin-4-one] | ≥ 5000 nM |
| Cc1cc(-c2cc(=O)c3c(=O)[nH]ccc3[nH]2)c(C)nc1C(C)(C)C [Compound 196, 2-(6-tert-butyl-2,5-dimethyl-3-pyridyl)-1,6-dihydro-1,6-naphthyridine-4,5-dione] | < 500 nM |
| Cc1cc2ccn(C)c2cc1-c1cc(=O)c2ccccc2[nH]1 [Compound 197, 2-(1,5-dimethylindol-6-yl)-1H-quinolin-4-one] | ≥ 5000 nM |
| N#Cc1nccc2[nH]c(-c3cnc4c(C(F)(F)F)cccc4c3)cc(=O)c12 [Compound 198, 4-oxo-2-[8-(trifluoromethyl)-3-quinolyl]-1H-1,6-naphthyridine-5-carbonitrile] | ≥ 5000 nM |
| Cc1cc(C(F)(F)F)c(Cl)cc1-c1cc(=O)c2c(=O)[nH]ccc2[nH]1 [Compound 199, 2-[5-chloro-2-methyl-4-(trifluoromethyl)phenyl]-1,6-dihydro-1,6-naphthyridine-4,5-dione] | < 500 nM |
| Cc1cc(C(C)(C)C)c(Cl)cc1-c1cc(=O)c2c(C(=O)O)nccc2[nH]1 [Compound 201, 2-(4-tert-butyl-5-chloro-2-methyl-phenyl)-4-oxo-1H-1,6-naphthyridine-5-carboxylic acid] | < 500 nM |
| Cc1cc2c(cc1-c1cc(=O)c3c(C(N)=O)nccc3[nH]1)CCCC2(C)C [Compound 213, 4-oxo-2-(1,1,7-trimethyltetralin-6-yl)-1H-1,6-naphthyridine-5-carboxamide] | < 500 nM |
| Cc1c(-c2cc(=O)c3c(C(N)=O)nccc3[nH]2)ccc2c1CCC2(C)C [Compound 223, 4-oxo-2-(1,1,4-trimethylindan-5-yl)-1H-1,6-naphthyridine-5-carboxamide] | < 500 nM |
| Cc1cc(-c2cc(=O)c3c(C(N)=O)nccc3[nH]2)c(C)c2c1C(C)(C)CC2 [Compound 230, 4-oxo-2-(1,1,4,7-tetramethylindan-5-yl)-1H-1,6-naphthyridine-5-carboxamide] | < 500 nM |
